Data on seven compounds can be found in PubChem BioAssay AID256 (DTP/NCI, 2004).

The list is a part of this screen's results and no random one: it gathers tests that were run many times, whatever their T/C, doses with no T/C, and many T/C values between a quarter and a half above the control. Further doses and runs are listed elsewhere. T/C is the treated group as % of the vehicle group. Some entries give survivors of the animals treated and no T/C: the source files T/C as zero there, which appears to mark a toxic dose or a test without result, not a measured value. Some doses without a T/C left all or most animals alive at the check, yet need not have been tolerated: survival well below the control is almost never listed, so the zero probably covers shortened survival too. Survivors were counted at the toxicity check, usually on the fifth day, unless a day is given; later deaths do not show. Schedule codes are those of the source, taken here to give the interval after Q, in days (D) or hours (H), and the number of doses after X. Some entries hold several experiments; their values stand side by side, smallest first. Some structures stand for samples that the source files as different forms (salt, stereo form or complex); doses refer to the form tested. For survival time, this PubChem deposit counts one and a half times the control or more as active, and values a quarter to a half above the control carry no call in these data; other NCI protocols may use other cut-offs. Some T/C values carry the count of animals alive at the toxicity check (mostly the fifth day); without a count, all were alive then. Brackets with × stand for listed records that agree.

For the test, the system named is CD2F1 mice, L1210 leukemia ip, survival T/C. The experiment in a line: NCI In Vivo Anticancer Drug Screen. Data for tumor model L1210 Leukemia (intraperitoneal) in CD2F1 (CDF1) mice. As to conditions: higher T/C = longer survival. Put shortly:
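Transplantable tumor in mice; compound-treated vs vehicle-treated groups. Read-out = treated/control ratio of the measured endpoint.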

[1] abbreviates: T/C endpoint: mean survival time, dose: 0.5 mg/kg/injection, schedule: Q01DX009 (ip), vehicle: saline.
Where [2] appears, read: T/C endpoint: mean survival time, dose: 4.0 mg/kg/injection, schedule: Q04DX003 (ip), vehicle: saline.

Take `C1CN1c1nc(N2CC2)nc(N2CC2)n1`: the survivor count is, setting by setting: (T/C endpoint: mean survival time, dose: 0.25 mg/kg/injection, schedule: Q01DX009 (ip), vehicle: saline) 5 of 6; under setting [1], 4 of 6; (T/C endpoint: mean survival time, dose: 1.0 mg/kg/injection, schedule: Q04DX003 (ip), vehicle: saline) 3 of 6; (T/C endpoint: mean survival time, dose: 2.0 mg/kg/injection, schedule: Q01DX005 (ip), vehicle: saline) 10 of 10; (T/C endpoint: mean survival time, dose: 2.0 mg/kg/injection, schedule: Q01DX007 (ip), vehicle: saline) 6 of 6; (T/C endpoint: mean survival time, dose: 2.0 mg/kg/injection, schedule: Q01DX009 (ip), vehicle: saline) 4 of 6. In addition, the survivor count is 6 of 6 (T/C endpoint: mean survival time, dose: 2.0 mg/kg/injection, schedule: Q04DX003 (ip), vehicle: saline); 0 of 6, 1 of 6, 3 of 6, 7 of 10, 5 of 6, 6 of 6 under setting [2]; 5 of 6 (T/C endpoint: mean survival time, dose: 500.0 micrograms/kg/injection, schedule: Q01DX009 (ip), vehicle: saline); 5 of 6 (T/C endpoint: mean survival time, dose: 1000.0 micrograms/kg/injection, schedule: Q01DX009 (ip), vehicle: saline); 3 of 6 (T/C endpoint: mean survival time, dose: 2000.0 micrograms/kg/injection, schedule: Q01DX009 (ip), vehicle: saline); 5 of 6 and 6 of 6 (T/C endpoint: median survival time, dose: 2.0 mg/kg/injection, schedule: Q01DX009 (ip), vehicle: saline). Besides, the T/C is 135 % of control (T/C endpoint: mean survival time, dose: 0.25 mg/kg/injection, schedule: Q03HX008 (ip), vehicle: saline); 133 and 134 % of control (T/C endpoint: mean survival time, dose: 0.25 mg/kg/injection, schedule: Q03HX016 (ip), vehicle: saline); 135 and 137 % of control under setting [1]; 136 % of control (T/C endpoint: mean survival time, dose: 0.5 mg/kg/injection, schedule: Q03DX003 (ip), vehicle: saline); 140 % of control (T/C endpoint: mean survival time, dose: 0.5 mg/kg/injection, schedule: Q03HX016 (ip), vehicle: saline); 111, 126, 129, 135, 138, 149, 177, 181, 216 % of control (T/C endpoint: mean survival time, dose: 0.5 mg/kg/injection, schedule: Q04DX003 (ip), vehicle: saline, evaluated on day 30). The T/C by setting is: (T/C endpoint: mean survival time, dose: 0.5 mg/kg/injection, schedule: Q04DX003 (ip), vehicle: saline, evaluated on day 60) 134 % of control; (T/C endpoint: mean survival time, dose: 1.0 mg/kg/injection, schedule: Q01DX001 (ip), vehicle: saline, evaluated on day 5) 130 % of control; (T/C endpoint: mean survival time, dose: 1.0 mg/kg/injection, schedule: Q01DX001 (ip), vehicle: saline, evaluated on day 6) 132 % of control; (T/C endpoint: mean survival time, dose: 1.0 mg/kg/injection, schedule: Q04DX003 (ip), vehicle: saline, evaluated on day 30) 133, 140, 151, 159, 160, 195, 196, 223 % of control; (T/C endpoint: mean survival time, dose: 1.0 mg/kg/injection, schedule: Q04DX003 (ip), vehicle: saline, evaluated on day 60) 163 % of control; (T/C endpoint: mean survival time, dose: 2.0 mg/kg/injection, schedule: Q01DX001 (ip), vehicle: saline) 142 % of control. The T/C by setting is: (T/C endpoint: mean survival time, dose: 2.0 mg/kg/injection, schedule: Q04DX003 (ip), vehicle: saline, evaluated on day 30) 90, 94, 112, 117, 140, 143, 151, 153 % of control; (T/C endpoint: mean survival time, dose: 2.0 mg/kg/injection, schedule: Q04DX003 (ip), vehicle: saline, evaluated on day 60) 153 % of control; under setting [2], 103 % of control; (T/C endpoint: mean survival time, dose: 250.0 micrograms/kg/injection, schedule: Q01DX009 (ip), vehicle: saline) 142 % of control; (T/C endpoint: median survival time, dose: 0.25 mg/kg/injection, schedule: Q01DX009 (ip), vehicle: saline) 128 % of control.

In the case of `CC1CN1CCCNC(=O)C(=O)NCCCN1CC1C` (centres undefined), the survivor count is, setting by setting: (T/C endpoint: mean survival time, dose: 200.0 mg/kg/injection, schedule: Q01DX001 (ip), vehicle: saline) 1 of 6; (T/C endpoint: mean survival time, dose: 400.0 mg/kg/injection, schedule: Q01DX001 (ip), vehicle: saline) 0 of 6.

`O=C(CC(O)(C(F)(F)F)C(F)(F)F)CC(O)(C(F)(F)F)C(F)(F)F`: the survivor count runs as follows: (T/C endpoint: mean survival time, dose: 10.0 mg/kg/injection, schedule: Q01DX001 (ip), vehicle: saline with Tween-80) 2 of 6; (T/C endpoint: mean survival time, dose: 20.0 mg/kg/injection, schedule: Q01DX001 (ip), vehicle: saline with Tween-80) 0 of 6; (T/C endpoint: mean survival time, dose: 20.0 mg/kg/injection, schedule: Q04DX003 (ip), vehicle: saline) 0 of 6; (T/C endpoint: mean survival time, dose: 50.0 mg/kg/injection, schedule: Q04DX003 (ip), vehicle: other) 3 of 6; (T/C endpoint: mean survival time, dose: 100.0 mg/kg/injection, schedule: Q01DX001 (ip), vehicle: saline with Tween-80) 0 of 6; (T/C endpoint: mean survival time, dose: 100.0 mg/kg/injection, schedule: Q04DX003 (ip), vehicle: other) 0 of 6. The survivor count was 0 of 6 (T/C endpoint: mean survival time, dose: 100.0 mg/kg/injection, schedule: Q04DX003 (ip), vehicle: saline with Tween-80); 0 of 6 (T/C endpoint: mean survival time, dose: 200.0 mg/kg/injection, schedule: Q01DX001 (ip), vehicle: saline with Tween-80); 0 of 6 (T/C endpoint: mean survival time, dose: 200.0 mg/kg/injection, schedule: Q04DX003 (ip), vehicle: other); 0 of 6 (T/C endpoint: mean survival time, dose: 200.0 mg/kg/injection, schedule: Q04DX003 (ip), vehicle: saline with Tween-80); 0 of 6 (T/C endpoint: mean survival time, dose: 400.0 mg/kg/injection, schedule: Q01DX001 (ip), vehicle: saline with Tween-80); 0 of 6 (T/C endpoint: mean survival time, dose: 400.0 mg/kg/injection, schedule: Q04DX003 (ip), vehicle: other). Also, the survivor count (T/C endpoint: mean survival time, dose: 400.0 mg/kg/injection, schedule: Q04DX003 (ip), vehicle: saline with Tween-80) is 0 of 6.

Turning to `CC(C)(CNC1CCCCC1)OC(=O)c1ccccc1`, where the note is “T/C endpoint: mean survival time, dose: 300.0 mg/kg/injection, schedule: Q01DX001 (ip), vehicle: saline”, the survivor count is recorded as 2 of 6.

Take `NNC(=S)S`: the survivor count runs as follows: (T/C endpoint: mean survival time, dose: 20.0 mg/kg/injection, schedule: Q01DX001 (ip), vehicle: saline) 3 of 6; (T/C endpoint: mean survival time, dose: 40.0 mg/kg/injection, schedule: Q01DX001 (ip), vehicle: saline) 0 of 6; (T/C endpoint: mean survival time, dose: 80.0 mg/kg/injection, schedule: Q01DX001 (ip), vehicle: saline) 0 of 6.

Consider `C=C(CC(=O)OC)C(=O)O`, for which the survivor count (T/C endpoint: mean survival time, dose: 100.0 mg/kg/injection, schedule: Q01DX009 (ip), vehicle: saline sonified) is listed as 3 of 6; the survivor count (T/C endpoint: mean survival time, dose: 200.0 mg/kg/injection, schedule: Q01DX009 (ip), vehicle: saline sonified) was 2 of 6; the survivor count (T/C endpoint: mean survival time, dose: 400.0 mg/kg/injection, schedule: Q01DX009 (ip), vehicle: saline sonified) is reported as 0 of 6.

In the case of `Nc1ccc(Cn2ccc3c4c(N)nc(N)nc4ccc32)cc1`, the T/C (T/C endpoint: mean survival time, dose: 2.5 mg/kg/injection, schedule: Q01DX009 (ip), vehicle: saline with Tween-80) was 106 (2×), 108, 116 % of control; the T/C (T/C endpoint: mean survival time, dose: 5.0 mg/kg/injection, schedule: Q01DX009 (ip), vehicle: saline with Tween-80) is 107, 112, 113, 115 [5 of 6 alive], 118 % of control; the T/C (T/C endpoint: mean survival time, dose: 10.0 mg/kg/injection, schedule: Q01DX009 (ip), vehicle: saline with Tween-80) is 112 (2×), 120, 124, 137 % of control; the T/C (T/C endpoint: mean survival time, dose: 20.0 mg/kg/injection, schedule: Q01DX009 (ip), vehicle: saline with Tween-80) is on record as 118, 128, 131, 139, 159 % of control; the T/C (T/C endpoint: median survival time, dose: 10.0 mg/kg/injection, schedule: Q01DX009 (ip), vehicle: saline with Tween-80) is 126 % of control; the T/C (T/C endpoint: median survival time, dose: 20.0 mg/kg/injection, schedule: Q01DX009 (ip), vehicle: saline with Tween-80) was 134 % of control. In addition, the survivor count was 1 of 6, 2 of 6, 3 of 6, 4 of 6 (T/C endpoint: mean survival time, dose: 40.0 mg/kg/injection, schedule: Q01DX009 (ip), vehicle: saline with Tween-80) and 2 of 6 (T/C endpoint: median survival time, dose: 40.0 mg/kg/injection, schedule: Q01DX009 (ip), vehicle: saline with Tween-80).
